Source: patent publication US6350580
A weaker result is weaker than the reference pair of the same experiment.

Chains of the proteins cited; added tags and fusions are not shown. Lines headed by an entry give the natural chain unless they say otherwise; changes in a name come on top.
UniProt O93634: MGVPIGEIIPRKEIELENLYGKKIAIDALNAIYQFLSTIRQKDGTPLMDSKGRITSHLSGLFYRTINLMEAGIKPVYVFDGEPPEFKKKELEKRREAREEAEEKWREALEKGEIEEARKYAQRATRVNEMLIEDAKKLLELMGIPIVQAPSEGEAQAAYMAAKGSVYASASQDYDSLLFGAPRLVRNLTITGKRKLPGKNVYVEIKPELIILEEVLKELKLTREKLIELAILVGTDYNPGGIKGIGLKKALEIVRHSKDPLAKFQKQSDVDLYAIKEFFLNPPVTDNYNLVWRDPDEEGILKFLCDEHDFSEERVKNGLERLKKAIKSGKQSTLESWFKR

Target: Pfu FEN-1 (CBP-tagged) (Pyrococcus furiosus) (UniProt O93634)
Experiment: enzyme reaction in vitro
Conditions: control; less cleavage than template 2; 50 C, Mg2+; purified recombinant protein; protein details: N-terminal CBP (pCAL-n-EK, Stratagene); label: 5' 33P; single-stranded DNA

Sequence: AAAATAAATAAAAAAAATACTGTTGGGAAGGGCGATCGGTGCG [Template 1 (Heltest4)]
- activity on this sequence: less active
